According to paper PMC7862700:
The entries are a selection whose mix differs from that of the whole data set. At the low end of the ranking, values are background and their order means little.

By UniProt entry, the sequences of proteins in these tests, tags left out. Where a name states a change or a piece, a line headed by the entry shows the natural chain unless it says otherwise.
UniProt Q01892: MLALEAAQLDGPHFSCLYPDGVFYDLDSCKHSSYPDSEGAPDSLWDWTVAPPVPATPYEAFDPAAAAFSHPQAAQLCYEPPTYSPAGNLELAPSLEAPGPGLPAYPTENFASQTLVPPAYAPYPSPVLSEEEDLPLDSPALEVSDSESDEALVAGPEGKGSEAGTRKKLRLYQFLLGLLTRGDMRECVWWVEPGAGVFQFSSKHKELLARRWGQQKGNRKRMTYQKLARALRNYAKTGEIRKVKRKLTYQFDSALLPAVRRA
UniProt P41161: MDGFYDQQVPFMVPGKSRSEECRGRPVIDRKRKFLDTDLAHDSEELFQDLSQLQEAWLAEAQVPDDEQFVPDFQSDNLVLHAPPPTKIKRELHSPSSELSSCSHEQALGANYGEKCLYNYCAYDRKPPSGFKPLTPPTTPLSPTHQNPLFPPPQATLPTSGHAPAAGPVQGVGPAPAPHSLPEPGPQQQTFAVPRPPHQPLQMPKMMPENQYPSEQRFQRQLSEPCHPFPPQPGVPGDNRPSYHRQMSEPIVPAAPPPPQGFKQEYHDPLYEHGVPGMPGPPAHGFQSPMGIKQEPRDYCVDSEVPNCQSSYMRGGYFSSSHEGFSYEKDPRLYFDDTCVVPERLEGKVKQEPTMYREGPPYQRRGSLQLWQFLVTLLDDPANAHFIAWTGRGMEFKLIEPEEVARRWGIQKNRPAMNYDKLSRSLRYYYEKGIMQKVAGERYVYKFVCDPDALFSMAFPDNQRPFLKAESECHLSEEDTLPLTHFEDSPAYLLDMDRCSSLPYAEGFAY
UniProt Q99607: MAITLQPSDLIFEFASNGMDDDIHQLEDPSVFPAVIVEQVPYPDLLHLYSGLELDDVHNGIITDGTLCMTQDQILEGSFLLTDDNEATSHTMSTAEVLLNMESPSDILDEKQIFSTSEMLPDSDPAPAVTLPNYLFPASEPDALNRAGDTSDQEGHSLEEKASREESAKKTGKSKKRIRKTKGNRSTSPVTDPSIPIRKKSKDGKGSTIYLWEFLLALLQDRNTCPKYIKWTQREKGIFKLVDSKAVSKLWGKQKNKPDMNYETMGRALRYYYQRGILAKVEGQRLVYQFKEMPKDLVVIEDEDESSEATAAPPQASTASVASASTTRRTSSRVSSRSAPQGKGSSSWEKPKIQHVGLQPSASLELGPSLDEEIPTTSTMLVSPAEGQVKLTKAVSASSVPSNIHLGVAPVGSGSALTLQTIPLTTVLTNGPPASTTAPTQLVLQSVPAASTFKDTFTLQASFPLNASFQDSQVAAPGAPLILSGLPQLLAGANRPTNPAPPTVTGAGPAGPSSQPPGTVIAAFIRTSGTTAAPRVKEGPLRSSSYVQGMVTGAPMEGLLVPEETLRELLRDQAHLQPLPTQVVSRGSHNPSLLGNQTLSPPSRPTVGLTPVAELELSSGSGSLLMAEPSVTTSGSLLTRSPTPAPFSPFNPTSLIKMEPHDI

Assays:
Assay in all cases: DAPPL (digital affinity profiling via proximity ligation, sequencing)
Settings in all cases: 10 mM Tris-HCl pH 7.5, 50 mM NaCl, 1 mM DTT, 4% glycerol, room temperature, 30 min; GST-TFs on glutathione beads, 16-mer random dsDNA library, 0.1% …; high values mean tight binding; double strand, one strand shown; scale: fold enrichment (6-mer frequency, TF over GST control)
[1] = molecular target: T1, FLI1 (UniProt Q01543)
T1 sequence: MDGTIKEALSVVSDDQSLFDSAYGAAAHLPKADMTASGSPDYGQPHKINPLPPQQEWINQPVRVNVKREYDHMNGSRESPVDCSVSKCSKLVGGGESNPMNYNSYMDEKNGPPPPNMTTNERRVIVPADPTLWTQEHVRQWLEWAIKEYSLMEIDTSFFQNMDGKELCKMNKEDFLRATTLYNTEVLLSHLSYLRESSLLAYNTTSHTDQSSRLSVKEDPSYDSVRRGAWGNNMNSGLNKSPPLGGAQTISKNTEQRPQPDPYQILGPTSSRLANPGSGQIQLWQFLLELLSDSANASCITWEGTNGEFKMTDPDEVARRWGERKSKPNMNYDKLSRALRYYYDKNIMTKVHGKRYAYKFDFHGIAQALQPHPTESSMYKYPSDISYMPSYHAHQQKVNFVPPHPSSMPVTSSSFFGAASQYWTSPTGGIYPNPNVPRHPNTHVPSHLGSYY

[2] = molecular target: T2, EHF (UniProt Q9NZC4)
T2 sequence: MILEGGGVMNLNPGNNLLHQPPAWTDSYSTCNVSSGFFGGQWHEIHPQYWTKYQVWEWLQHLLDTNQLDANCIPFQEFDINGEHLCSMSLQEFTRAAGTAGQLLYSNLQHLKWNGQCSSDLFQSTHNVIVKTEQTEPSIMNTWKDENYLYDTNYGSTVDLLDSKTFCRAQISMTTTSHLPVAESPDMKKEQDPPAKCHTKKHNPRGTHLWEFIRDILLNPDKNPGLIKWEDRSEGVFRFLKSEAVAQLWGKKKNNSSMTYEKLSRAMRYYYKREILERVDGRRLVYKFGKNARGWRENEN

[3] = molecular target: SPIB (UniProt Q01892)
[4] = molecular target: ETV5 (UniProt P41161)
[5] = molecular target: ELF4 (UniProt Q99607)
[6] = molecular target: T3, ETV2 (UniProt O00321)
T3 sequence: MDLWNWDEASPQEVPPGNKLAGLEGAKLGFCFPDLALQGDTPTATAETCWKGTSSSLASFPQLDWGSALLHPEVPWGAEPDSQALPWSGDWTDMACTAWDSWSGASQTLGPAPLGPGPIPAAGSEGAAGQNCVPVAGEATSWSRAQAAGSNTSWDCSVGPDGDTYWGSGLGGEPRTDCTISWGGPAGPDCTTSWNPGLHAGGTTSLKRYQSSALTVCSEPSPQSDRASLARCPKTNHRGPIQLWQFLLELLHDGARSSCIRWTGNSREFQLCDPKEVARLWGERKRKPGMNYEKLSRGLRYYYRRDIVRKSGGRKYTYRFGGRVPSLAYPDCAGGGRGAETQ

[7] = molecular target: T4, ETV3L (UniProt Q6ZN32)
T4 sequence: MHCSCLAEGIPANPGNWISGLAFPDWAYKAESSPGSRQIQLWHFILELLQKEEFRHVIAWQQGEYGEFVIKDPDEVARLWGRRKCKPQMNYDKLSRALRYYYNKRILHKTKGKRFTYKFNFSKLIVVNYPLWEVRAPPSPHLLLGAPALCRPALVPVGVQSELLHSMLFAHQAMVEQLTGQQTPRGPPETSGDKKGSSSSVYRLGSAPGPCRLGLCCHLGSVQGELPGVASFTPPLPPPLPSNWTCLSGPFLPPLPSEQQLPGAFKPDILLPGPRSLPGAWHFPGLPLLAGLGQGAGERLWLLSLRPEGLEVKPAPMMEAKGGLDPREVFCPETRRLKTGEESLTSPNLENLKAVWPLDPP

Sequence | binding signal [1] | binding signal [2] | binding signal [3] | binding signal [4] | binding signal [5] | binding signal [6] | binding signal [7]
GACCAA | 0.942 | 0.981 | 0.914 | 0.929 | 0.994 | 0.999 | 0.95
GCGAAG | 0.905 | – | 0.948 | 0.9 | 0.843 | 0.882 | 0.773
AGTTAC | 0.945 | – | 0.922 | 1.05 | 0.95 | 0.826 | 0.859
GCAGAA | 0.94 | 0.952 | 0.934 | 0.909 | 0.912 | 0.962 | 0.844
AGACTC | 0.955 | 0.841 | 0.926 | 0.899 | 0.934 | 0.992 | 0.929
AGAACT | 0.915 | 0.919 | 0.942 | 0.88 | 0.942 | 0.812 | 0.94
GGCTGC | 0.984 | – | 0.915 | 0.981 | 0.967 | 0.904 | 0.968
ATAGTC | 0.952 | 0.853 | 0.755 | 0.938 | 0.865 | 0.901 | 0.883
AAACAG | 0.957 | 0.959 | 0.966 | 1.07 | 0.981 | 0.962 | 0.953
CGAGAA | 0.87 | 0.888 | 0.997 | 0.919 | 0.88 | 0.915 | 0.882
GCGTCA | 0.927 | 0.893 | 0.888 | 0.902 | 0.952 | 1.06 | 0.929
GAAGAT | 0.883 | 0.918 | 0.898 | 0.931 | 0.916 | 0.966 | 0.898
CGTCAT | 0.935 | 0.942 | 0.96 | 1 | 0.962 | 0.947 | 0.977
CGCTGT | 0.971 | 0.923 | 0.917 | 0.956 | 0.893 | 1.01 | 0.956
TTAGGA | 0.86 | – | 0.936 | 0.915 | 0.92 | 0.964 | 0.869
CGGATT | 0.965 | 0.859 | 0.963 | 0.952 | 0.898 | 0.828 | 0.959
AGGTGT | 0.842 | 0.772 | 0.83 | 0.854 | 0.834 | 0.833 | 0.77
CAGAAA | 0.956 | 0.963 | 0.967 | 0.937 | 0.941 | 0.993 | 0.888
TTGAAG | 0.93 | 0.987 | 0.985 | 0.959 | 0.99 | 0.981 | 0.972
CAGCAC | 0.97 | – | 0.97 | 0.939 | 0.988 | 0.991 | 0.931
GACTTG | 0.926 | 0.816 | 0.904 | 0.79 | 0.87 | 0.91 | 0.793
GTTGAA | 0.863 | 0.944 | 0.828 | 0.793 | 0.891 | 0.909 | 0.925
GCCAGA | 0.684 | 0.717 | 0.663 | 0.693 | 0.682 | 0.743 | 0.614
AGAAGG | 0.599 | 0.71 | 0.646 | 0.666 | 0.683 | 0.712 | 0.671
TACGGG | 0.92 | 0.896 | 0.905 | 0.912 | 0.869 | 0.79 | 0.887
GCGAAC | 0.888 | 0.873 | 0.935 | 0.961 | 0.943 | 0.947 | 0.897
ACAAGG | 0.951 | – | 0.926 | 0.944 | 0.926 | 0.923 | 0.964
AGCGAA | 0.939 | – | 0.907 | 0.909 | 0.894 | 0.783 | 0.901
TAAGGA | 0.902 | 0.962 | 0.879 | 0.903 | 0.859 | 0.831 | 0.888
TAGACA | 0.983 | 0.906 | 0.909 | 0.954 | 0.971 | 1.01 | –

Full records as entered above. Values in the order: binding signal [1]	binding signal [2]	binding signal [3]	binding signal [4]	binding signal [5]	binding signal [6]	binding signal [7]
GACCAA reads 0.942	0.981	0.914	0.929	0.994	0.999	0.95
GCAGAA reads 0.94	0.952	0.934	0.909	0.912	0.962	0.844
